The values that follow come from paper doi:10.1101/2025.10.26.679380.

By UniProt entry, the sequences of proteins in these tests, tags left out.
UniProt P29590: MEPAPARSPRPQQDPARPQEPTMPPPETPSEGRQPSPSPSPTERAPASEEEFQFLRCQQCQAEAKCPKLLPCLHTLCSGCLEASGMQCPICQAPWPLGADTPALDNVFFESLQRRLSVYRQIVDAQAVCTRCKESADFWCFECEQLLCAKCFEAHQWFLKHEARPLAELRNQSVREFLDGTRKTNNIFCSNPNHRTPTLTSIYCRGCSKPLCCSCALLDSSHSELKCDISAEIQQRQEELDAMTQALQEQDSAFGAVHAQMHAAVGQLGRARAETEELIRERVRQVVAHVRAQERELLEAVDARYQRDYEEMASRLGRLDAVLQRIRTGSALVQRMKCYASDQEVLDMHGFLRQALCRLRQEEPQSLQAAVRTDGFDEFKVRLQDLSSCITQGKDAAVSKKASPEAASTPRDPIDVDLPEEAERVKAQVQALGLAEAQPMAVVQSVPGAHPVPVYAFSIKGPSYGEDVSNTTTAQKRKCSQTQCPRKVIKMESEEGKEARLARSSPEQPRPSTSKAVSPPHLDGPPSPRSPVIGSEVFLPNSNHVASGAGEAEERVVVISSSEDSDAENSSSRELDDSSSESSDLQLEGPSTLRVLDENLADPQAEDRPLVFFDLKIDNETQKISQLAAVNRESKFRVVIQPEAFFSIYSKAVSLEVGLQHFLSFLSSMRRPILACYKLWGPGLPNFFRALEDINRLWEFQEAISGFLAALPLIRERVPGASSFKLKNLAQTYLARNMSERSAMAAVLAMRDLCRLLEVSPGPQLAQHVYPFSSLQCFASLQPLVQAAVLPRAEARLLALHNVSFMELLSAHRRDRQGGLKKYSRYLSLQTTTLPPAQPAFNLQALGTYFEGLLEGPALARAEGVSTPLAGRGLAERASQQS

Results are given in words; binding and its absence hold for the method and conditions named. In cells and extracts the contact can be indirect. Some entries that bind do so weakly or less than the wild type.

The target in the assay is promyelocytic leukaemia protein (PML), endogenous (human (endogenous in U-2OS)) (UniProt P29590). Description: co-IP.

B1: Anillin (ANLN), endogenous (protein, UniProt Q9NQW6 1-1124)
chain: MDPFTEKLLERTRARRENLQRKMAERPTAAPRSMTHAKRARQPLSEASNQQPLSGGEEKSCTKPSPSKKRCSDNTEVEVSNLENKQPVESTSAKSCSPSPVSPQVQPQAADTISDSVAVPASLLGMRRGLNSRLEATAASSVKTRMQKLAEQRRRWDNDDMTDDIPESSLFSPMPSEEKAASPPRPLLSNASATPVGRRGRLANLAATICSWEDDVNHSFAKQNSVQEQPGTACLSKFSSASGASARINSSSVKQEATFCSQRDGDASLNKALSSSADDASLVNASISSSVKATSPVKSTTSITDAKSCEGQNPELLPKTPISPLKTGVSKPIVKSTLSQTVPSKGELSREICLQSQSKDKSTTPGGTGIKPFLERFGERCQEHSKESPARSTPHRTPIITPNTKAIQERLFKQDTSSSTTHLAQQLKQERQKELACLRGRFDKGNIWSAEKGGNSKSKQLETKQETHCQSTPLKKHQGVSKTQSLPVTEKVTENQIPAKNSSTEPKGFTECEMTKSSPLKITLFLEEDKSLKVTSDPKVEQKIEVIREIEMSVDDDDINSSKVINDLFSDVLEEGELDMEKSQEEMDQALAESSEEQEDALNISSMSLLAPLAQTVGVVSPESLVSTPRLELKDTSRSDESPKPGKFQRTRVPRAESGDSLGSEDRDLLYSIDAYRSQRFKETERPSIKQVIVRKEDVTSKLDEKNNAFPCQVNIKQKMQELNNEINMQQTVIYQASQALNCCVDEEHGKGSLEEAEAERLLLIATGKRTLLIDELNKLKNEGPQRKNKASPQSEFMPSKGSVTLSEIRLPLKADFVCSTVQKPDAANYYYLIILKAGAENMVATPLASTSNSLNGDALTFTTTFTLQDVSNDFEINIEVYSLVQKKDPSGLDKKKKTSKSKAITPKRLLTSITTKSNIHSSVMASPGGLSAVRTSNFALVGSYTLSLSSVGNTKFVLDKVPFLSSLEGHIYLKIKCQVNSSVEERGFLTIFEDVSGFGAWHRRWCVLSGNCISYWTYPDDEKRKNPIGRINLANCTSRQIEPANREFCARRNTFELITVRPQREDDRETLVSQCRDTLCVTKNWLSADTKEERDLWMQKLNQVLVDIRLWQPDACYKPIGKP
B1: the binding entry is reported as “binds”.
